Data as given in publication PMC6168287.

Assays:
[1] = target: T1, subunit ND1 of respiratory complex I from Yarrowia lipolytica (Yarrowia lipolytica) (UniProt Q9B6E8); assay: cryo-EM structure; complex I purified from Y. lipolytica, deactive state, 2 μM in 20 mM Tris-HCl, pH 7.2, 100 mM NaCl, 1 mM EDTA, 0.025% DDM; map of 4.3 Å from 124,626 particles; both purified
T1 sequence: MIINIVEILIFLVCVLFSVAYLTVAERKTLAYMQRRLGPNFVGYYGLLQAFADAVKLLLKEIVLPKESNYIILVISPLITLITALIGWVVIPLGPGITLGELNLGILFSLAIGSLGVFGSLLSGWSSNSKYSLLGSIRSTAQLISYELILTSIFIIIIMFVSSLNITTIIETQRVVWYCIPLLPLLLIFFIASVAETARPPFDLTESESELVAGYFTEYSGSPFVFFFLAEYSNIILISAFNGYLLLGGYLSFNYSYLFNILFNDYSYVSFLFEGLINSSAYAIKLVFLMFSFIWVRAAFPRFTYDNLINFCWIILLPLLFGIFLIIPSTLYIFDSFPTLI

[2] = target: T2, subunit ND3 of respiratory complex I from Yarrowia lipolytica (Yarrowia lipolytica) (UniProt Q9B6C7); assay: as above
T2 sequence: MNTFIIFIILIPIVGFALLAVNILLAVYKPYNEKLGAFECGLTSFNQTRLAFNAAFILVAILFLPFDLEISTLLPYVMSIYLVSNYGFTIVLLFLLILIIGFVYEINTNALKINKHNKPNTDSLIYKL

[3] = target: T3, accessory subunit N7BM of respiratory complex I from Yarrowia lipolytica (Yarrowia lipolytica) (UniProt Q6CG53); assay: cryo-EM structure; 3D class of the deactive data set with an extra density (ST1) protruding from the side of the matrix arm; map of 5.2 Å from 36,723 particles; both purified
T3 sequence: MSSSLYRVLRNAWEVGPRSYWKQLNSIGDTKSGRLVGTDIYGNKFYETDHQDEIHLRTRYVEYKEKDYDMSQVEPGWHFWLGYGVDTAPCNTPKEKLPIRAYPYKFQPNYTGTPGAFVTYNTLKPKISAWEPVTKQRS

Substance: PSST subunit of respiratory complex I from Yarrowia lipolytica
- binding [1]: binds

Substance: accessory subunit NUFM of respiratory complex I from Yarrowia lipolytica
- binding [2]: binds

Substance: accessory sulfur transferase subunit ST1 of Yarrowia lipolytica complex I
- binding [3]: binds

These are yes or no findings as the source states them, for the method shown. A result given as binding can be weak or reduced; the word gives no strength.
